Earlier results, collected in patent US6113907A, “Pharmaceutical grade St. John's Wort” (priority 1997, dated 2000).
Like-named read-outs stand apart in the source and are kept apart here. At least one read-out could not be matched to a standard name with certainty.

Conditions: human volunteers, cited from earlier work

Q: Which “plasma levels of hypericin” value (LI 160, single 300 mg dose) does the source give for `Cc1cc(O)c2c(=O)c3c(O)cc(O)c4c5c(O)cc(O)c6c(=O)c7c(O)cc(C)c8c1c2c(c34)c(c78)c65` [Hypericin, hypericin] here?
A: The value was 1.5 ng/mL.

Q: And the “plasma levels of hypericin” value (LI 160, steady state)?
A: The value was 8.5 ng/mL.
